Where a name gives a salt, the structure may show the parent alone. Some of these results come from one statement about several compounds together.
biological target: T1, recombinant human Itk kinase domain fused with GST (Homo sapiens, UniProt Q08881); test: Itk LANCE TRF Assay; format: biochemical; settings: 2 μM biotinylated peptide substrate, 50 μM ATP, 50 minutes RT, read-out: Inhibition of Kinase Itk (IC50 μM)
T1 construct: recombinant human Itk kinase domain fused with GST (Glutathione S-Transferase); GST (Glutathione S-Transferase); made in house; host or cells: High Five insect cells
T1 sequence (Q08881 363-615 limits assumed): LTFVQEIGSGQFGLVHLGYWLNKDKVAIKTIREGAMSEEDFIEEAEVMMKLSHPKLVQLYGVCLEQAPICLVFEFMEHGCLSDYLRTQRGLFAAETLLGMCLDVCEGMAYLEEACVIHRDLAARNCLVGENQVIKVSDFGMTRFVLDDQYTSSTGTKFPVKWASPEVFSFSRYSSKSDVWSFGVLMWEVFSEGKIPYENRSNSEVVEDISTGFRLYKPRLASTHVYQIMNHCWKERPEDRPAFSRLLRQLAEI
Protocol: The Itk kinase assay utilized recombinant human Itk kinase domain fused with GST (Glutathione S-Transferase). The protein was expressed in High five insect cells, purified in one step on an affinity chromatography glutathione column and stored in 50 mM Tris/HCl (pH 7.6), 150 mM NaCl, 5% (w/v) mannitol, 1 mM DTT, 30% glycerol at −70° C. The kinase substrate used in the assay was a biotinylated peptide derived from the Src-optimal substrate (Nair et al, J. Med. Chem., 38: 4276, 1995; biotin-AEEEIYGEFEAKKKK).
The assay additions were as follows: Test compounds (or controls; 1 μL in 100% DMSO) were added to black 96-well flat-bottomed plates (Greiner 655076) followed by 20 μL Itk in assay buffer and the reaction was started by adding 20 μL ATP and peptide substrate in assay buffer. The assay buffer constitution during, phosphorylation was: 50 mM HEPES (pH 6.8), 10 mM MgCl2, 0.015% Brij 35, 1 mM DTT, 10% glycerol, 160 ng/well Itk, 2 μM peptide substrate and 50 μM ATP. The assay was stopped after 50 minutes (RT) by adding 150 μL ice-cold Stop solution (50 mM Tris/HCl, pH 7.5, 10 mM EDTA, 0.9% NaCl and 0.1% BSA) together with LANCE reagents (2 nM PT66-Eu^3+, Wallac AD0069 and 5 μg/mL Streptavidin-APC, Wallac AD0059. Both concentrations were final in stopped assay solution). The plates were measured on a Wallac 1420 Victor 2 instrument with TRF settings after 1 h incubation, and the ratio (665 signal/615 signal)*10000 was used to calculate the inhibition values. IC50 values were determined using XLfit.

SMILES	IC50
CN1CCC(N(C)CCOc2ccc(-c3nc4cc(Br)cnc4[nH]3)cc2)C1 (stereo not drawn) [Example 59, N-{2-[4-(6-Bromo-3H-imidazo[4,5-b]pyridin-2-yl)phenoxy]ethyl}-N,1-dimethylpyrrolidin-3-amine bis(trifluoroacetate)]	< 25 µM
Oc1ccccc1Nc1c(Cl)cnc2nc(-c3ccc(OCCN4CCOCC4)cc3)[nH]c12 [Example 208, 2-[(6-Chloro-2-{4-[2-(4-morpholinyl)ethoxy]phenyl}-1H-imidazo[4,5-b]pyridin-7-yl)amino]phenol]	< 25 µM
OC(COc1ccc(-c2nc3cc(Br)cnc3[nH]2)cc1)CN1CCCCC1c1cccnc1 (stereo not drawn) [Example 170, 1-[4-(6-Bromo-3H-imidazo[4,5-b]pyridin-2-yl)phenoxy]-3-(2-pyridin-3-ylpiperidin-1-yl)propan-2-ol bis(trifluoroacetate)]	< 25 µM
Cn1c(CNc2ccc(-c3nc4cc(Br)cnc4[nH]3)cc2)nc2ccccc21 [Example 200, N-[4-(6-Bromo-3H-imidazo[4,5-b]pyridin-2-yl)phenyl]-N-[(1-methyl-1H-benzimidazol-2-yl)methyl]amine bis(trifluoroacetate)]	< 25 µM
OC1CCN(CCOc2ccc(-c3nc4cc(Br)cnc4[nH]3)cc2)C1 (stereo not drawn) [Example 56, 1-{2-[4-(6-Bromo-3H-imidazo[4,5-b]pyridin-2-yl)phenoxy]ethyl}pyrrolidin-3-ol bis(trifluoroacetate)]	< 25 µM
COc1cccc(CNCC(O)COc2ccc(-c3nc4cc(Br)cnc4[nH]3)cc2)c1 (stereo not drawn) [Example 140, 1-[4-(6-Bromo-3H-imidazo[4,5-b]pyridin-2-yl)phenoxy]-3-[(3-methoxybenzyl)amino]propan-2-ol bis(trifluoroacetate)]	< 25 µM
CN(CCC#N)CCOc1ccc(-c2nc3cc(Br)cnc3[nH]2)cc1 [Example 54, 3-[{2-[4-(6-Bromo-3H-imidazo[4,5-b]pyridin-2-yl)phenoxy]ethyl}(methyl)amino]propanenitrile bis(trifluoroacetate)]	< 25 µM
CS(=O)(=O)c1ccc(-c2nc3cc(Br)cnc3[nH]2)cc1 [Example 34, 6-Bromo-2-[4-(methylsulfonyl)phenyl]-3H-imidazo[4,5-b]pyridine trifluoroacetate]	< 25 µM
OC(CCl)COc1ccc(-c2nc3cc(Br)cnc3[nH]2)cc1 (stereo not drawn) [Example 165, 1-[4-(6-Bromo-3H-imidazo[4,5-b]pyridin-2-yl)phenoxy]-3-chloropropan-2-ol trifluoroacetate]	< 25 µM
CN(Cc1ccccc1)CC(O)COc1ccc(-c2nc3cc(Br)cnc3[nH]2)cc1 (stereo not drawn) [Example 135, 1-[Benzyl(methyl)amino]-3-[4-(6-bromo-3H-imidazo[4,5-b]pyridin-2-yl)phenoxy]propan-2-ol bis(trifluoroacetate)]	< 25 µM
NC(=O)C1CCCN(CC(O)COc2ccc(-c3nc4cc(Br)cnc4[nH]3)cc2)C1 (stereo not drawn) [Example 161, 1-{3-[4-(6-Bromo-3H-imidazo[4,5-b]pyridin-2-yl)phenoxy]-2-hydroxypropyl}piperidine-3-carboxamide bis(trifluoroacetate)]	< 25 µM
OC(COc1ccc(-c2nc3cc(Br)cnc3[nH]2)cc1)CN1CCN(c2cnccn2)CC1 (stereo not drawn) [Example 167, 1-[4-(6-Bromo-3H-imidazo[4,5-b]pyridin-2-yl)phenoxy]-3-(4-pyrazin-2-ylpiperazin-1-yl)propan-2-ol bis(trifluoroacetate)]	< 25 µM
NC(=O)COc1ccc(-c2nc3cc(Br)cnc3[nH]2)cc1 [Example 41, 2-[4-(6-Bromo-3H-imidazo[4,5-b]pyridin-2-yl)phenoxy]acetamide]	< 25 µM
Clc1cnc2[nH]c(-c3ccc(OCCN4CCOCC4)cc3)nc2c1-c1ccsc1 [Example 241, 6-Chloro-2-[4-(2-morpholin-4-ylethoxy)phenyl]-7-thien-3-yl-3H-imidazo[4,5-b]pyridine]	< 25 µM
Brc1cnc2[nH]c(-c3ccc(OCCN4CCC(N5CCCCC5)CC4)cc3)nc2c1 [Example 103]	< 25 µM
Clc1cccc(CNCCOc2ccc(-c3nc4cc(Br)cnc4[nH]3)cc2)c1 [Example 72, N-{2-[4-(6-Bromo-3H-imidazo[4,5-b]pyridin-2-yl)phenoxy]ethyl}-N-(3-chlorobenzyl)amine bis(trifluoroacetate)]	< 25 µM
OCc1cccc(Nc2c(Cl)cnc3[nH]c(-c4ccc(OCCN5CCOCC5)cc4)nc23)c1 [Example 220]	< 25 µM

SMILES	IC50
COc1cccc(N2CCN(CCOc3ccc(-c4nc5cc(Br)cnc5[nH]4)cc3)CC2)c1 [Example 99, 6-Bromo-2-(4-2-[4-(3-methoxyphenyl)piperazin-1-yl]ethoxyphenyl)-3H-imidazo[4,5-b]pyridine bis(trifluoroacetate)]	< 25 µM
COC(=O)c1cc(CNc2ccc(-c3nc4cc(Br)cnc4[nH]3)cc2)cn1C [Example 203, Methyl 4-({[4-(6-bromo-3H-imidazo[4,5-b]pyridin-2-yl)phenyl]amino}methyl)-1-methyl-1H-pyrrole-2-carboxylate bis(trifluoroacetate)]	< 25 µM
COc1c(Cl)cnc2[nH]c(-c3ccc(OCCN4CCOCC4)cc3)nc12 [Example 269, 6-Chloro-7-methoxy-2-[4-(2-morpholin-4-ylethoxy)phenyl]-3H-imidazo[4,5-b]pyridine]	< 25 µM
OC(CNC1CC1)COc1ccc(-c2nc3cc(Br)cnc3[nH]2)cc1 (stereo not drawn) [Example 146, 1-[4-(6-Bromo-3H-imidazo[4,5-b]pyridin-2-yl)phenoxy]-3-(cyclopropylamino)propan-2-ol bis(trifluoroacetate)]	< 25 µM
OC(CNCc1ccc(Cl)cc1)COc1ccc(-c2nc3cc(Br)cnc3[nH]2)cc1 (stereo not drawn) [Example 142, 1-[4-(6-Bromo-3H-imidazo[4,5-b]pyridin-2-yl)phenoxy]-3-[(4-chlorobenzyl)amino]propan-2-ol bis(trifluoroacetate)]	< 25 µM
Clc1cnc2[nH]c(-c3ccc(OCCN4CCCCC4)cc3)nc2c1 [Example 278, 6-Chloro-2-[4-(2-piperidin-1-ylethoxy)phenyl]-3H-imidazo[4,5-b]pyridine]	< 25 µM
O=[N+]([O-])c1cc(-c2nc3ncc(Cl)c(Cl)c3[nH]2)ccc1OCCN1CCOCC1 [Example 246]	< 25 µM
OC(CNCc1ccccc1)COc1ccc(-c2nc3cc(Br)cnc3[nH]2)cc1 (stereo not drawn) [Example 150, 1-(Benzylamino)-3-[4-(6-bromo-3H-imidazo[4,5-b1]pyridin-2-yl)phenoxy]propan-2-ol bis(trifluoroacetate)]	< 25 µM
Brc1cnc2[nH]c(-c3ccc(OCCNCc4ccccc4)cc3)nc2c1 [Example 80, N-Benzyl-N-{2-[4-(6-bromo-3H-imidazo[4,5-b]pyridin-2-yl)phenoxy]ethyl}amine bis(trifluoroacetate)]	< 25 µM
Cc1ncc(CNc2ccc(-c3nc4cc(Br)cnc4[nH]3)cc2)[nH]1 [Example 196, N-[4-(6-Bromo-3H-imidazo[4,5-b]pyridin-2-yl)phenyl]-N-[(2-methyl-1H-imidazol-5-yl)methyl]amine bis(trifluoroacetate)]	< 25 µM
Clc1cnc2nc(-c3ccc(OCCN4CCOCC4)cc3)[nH]c2c1-n1cccc1 [Example 213, 6-Chloro-2-{4-[2-(4-morpholinyl)ethoxy]phenyl}-7-(1H-pyrrol-1-yl)-1H-imidazo[4-5-b]pyridine]	< 25 µM
Brc1cnc2[nH]c(-c3ccc(OCCNc4nc[nH]n4)cc3)nc2c1 [Example 106, N-{2-[4-(6-Bromo-3H-imidazo[4,5-b]pyridin-2-yl)phenoxy]ethyl}-1H-1,2,4-triazol-3-amine bis(trifluoroacetate)]	< 25 µM
COCCN1CCN(CCOc2ccc(-c3nc4cc(Br)cnc4[nH]3)cc2)CC1 [Example 74, 6-Bromo-2-(4-{2-[4-(2-methoxyethyl)piperazin-1-yl]ethoxy}phenyl)-3H-imidazo[4,5-b]pyridine bis(trifluoroacetate)]	< 25 µM
COc1ccccc1C1CCN(CCOc2ccc(-c3nc4cc(Br)cnc4[nH]3)cc2)CC1 [Example 110]	< 25 µM
Brc1cnc2[nH]c(-c3ccsc3)nc2c1 [Example 30, 6-Bromo-2-thien-3-yl-3H-imidazo[4,5-b]pyridine trifluoroacetate]	< 25 µM
CN(Cc1ccccc1)c1c(Cl)cnc2nc(-c3ccc(OCCN4CCOCC4)cc3)[nH]c12 [Example 226, N-Benzyl-6-chloro-N-methyl-2-{4-[2-(4-morpholinyl)ethoxy]phenyl}-1H-imidazo[4,5-b]pyridin-7-amine]	< 25 µM

Source: US7410966B2, “Use of and some novel imidazopyridines” (AstraZeneca AB, priority 2002, dated 2008)
